Taken from: PubChem BioAssay AID1224826 (NIAID, 2016)
In all, the deposit lists about 17,000 reagents; below is a random part of them. About 1,110 of all reagents (6.6%) were called active. 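Active means lowered or raised reporter signal; replicate intensities are raw and not normalised per plate.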 Further read-outs or replicates are left out here. Reagent sequences are not shown.

- Test: 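Genes that change LPS-induced Tnf promoter activity in mouse macrophages when knocked down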 (primary screen)
- Cell system: RAW264.7 G9 macrophages from mouse bearing reporters for p65 (GFP) and the Tnf promoter (mCherry)
- Reagent: siRNA pool against mouse genes, 100 nM
- Duration: 16 h of LPS stimulation, after 2 days of siRNA transfection
- Conditions: bacterial lipopolysaccharide (Salmonella minnesota R595), 10 ng/ml
- Measured: 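Nuclear mCherry signal of the Tnf promoter reporter measured by imaging after background removal, scaled to each plate median and turned into robust z-scores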
- Direction: Tnf reporter robust z-score: higher = stronger Tnf promoter reporter signal after LPS; Tnf reporter intensity: higher = stronger Tnf promoter reporter signal
- Call rule: 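Called active when robust z-score is at most -1.3, matching the median of the Tlr4 knock-down control, or over 3; control wells and wells with under 50 cells never active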
- Meaning of the calls: active = Tnf reporter clearly lowered or raised; inactive = no clear change in Tnf reporter

gene symbol,Tnf reporter robust z-score,fewer than 50 cells in well,"Tnf reporter intensity, replicate 1",outcome
Cnot4,0.69,enough cells in well,284,inactive
Cachd1,-0.19,enough cells in well,210,inactive
A930025A13Rik,-0.59,enough cells in well,142,inactive
B4galnt3,-0.89,enough cells in well,157,inactive
Tpbg,0.97,enough cells in well,322,inactive
Nek5,0.06,enough cells in well,225,inactive
Mgl2,-0.11,enough cells in well,145,inactive
4833444G19Rik,-0.81,enough cells in well,140,inactive
Semg1,0.69,enough cells in well,125,inactive
Atp6v1h,0.06,enough cells in well,159,inactive
Abcc12,-0.69,enough cells in well,175,inactive
AI504432,0.52,enough cells in well,207,inactive
Adcy8,1.02,enough cells in well,327,inactive
Zfp706,,fewer than 50 cells per well; well left out of calls,169,inactive
Adck2,-0.18,enough cells in well,187,inactive
Ndufa2,2.68,enough cells in well,340,inactive
Acaca,-1.85,enough cells in well,62.3,active
Or4c35,2.62,enough cells in well,391,inactive
Snhg16,,fewer than 50 cells per well; well left out of calls,101,inactive
Exoc3l,1.47,enough cells in well,248,inactive
Slco6b1,,fewer than 50 cells per well; well left out of calls,107,inactive
Stab2,0.1,enough cells in well,113,inactive
Iqcc,3.37,enough cells in well,440,active
Chek1,0.6,enough cells in well,256,inactive
Cav3,-0.86,enough cells in well,179,inactive
Selp,-0.94,enough cells in well,179,inactive
Or10h1b,-1.08,enough cells in well,197,inactive
Mbp,-0.04,enough cells in well,278,inactive
Nhlrc2,-0.74,enough cells in well,134,inactive
Cep41,-0.71,enough cells in well,97.6,inactive
Or51d1,0.71,enough cells in well,76.7,inactive
Tbpl2,-0.67,enough cells in well,89.4,inactive
Dcaf5,0.21,enough cells in well,101,inactive
Allc,-0.11,enough cells in well,206,inactive
Srd5a2,-0.17,enough cells in well,235,inactive
N4bp2l1,-0.75,enough cells in well,103,inactive
Dolpp1,-0.47,enough cells in well,181,inactive
Dcaf11,-1.03,enough cells in well,64.3,inactive
Fgfr1,-0.58,enough cells in well,125,inactive
Csnk2b,-1.3,enough cells in well,115,active

No new results follow: 5 of the entries above.
gene symbol,Tnf reporter robust z-score,fewer than 50 cells in well,"Tnf reporter intensity, replicate 1",outcome
Srd5a2,-0.17,enough cells in well,235,inactive
N4bp2l1,-0.75,enough cells in well,103,inactive
Dolpp1,-0.47,enough cells in well,181,inactive
Dcaf11,-1.03,enough cells in well,64.3,inactive
Fgfr1,-0.58,enough cells in well,125,inactive
